At least one structure is not confirmed: it was looked up by name or label, or the drawing left a doubt.
Assays:
Xenopus egg extract = assay: Spindle assembly in Xenopus egg extracts; design: species or system Xenopus laevis; settings: 100 µM added to Xenopus egg extract
Experimental: Cytostatic factor (CSF)-arrested Xenopus laevis egg extracts were prepared as described previously. Spindle assembly experiments were performed in cycled extracts with sperm nuclei and tetramethylrhodamine labelled tubulin as described. 1 % (v/v) (or less) inhibitor dissolved in DMSO was added to the extract prior to spindle assembly. As control 1% DMSO was added to the extract. Spindles were fixed and centrifuged onto coverslips. The DNA was stained with DAPI. Structures were then visualized by epi-fluorescence microscopy (Zeiss Axiovert 135 equipped with a Roper CoolSnap HQ camera). Spindles and aberrant microtubule structures were then counted.

HeLa cells = assay: Immunofluorescence morphology of treated HeLa cells (anti-tubulin antibody and Hoechst); type: cell-based, human; settings: immunofluorescence with anti-tubulin antibody and Hoechst

CCOC(=O)C1=C(C)NC(=S)NC1c1cccc(O)c1 (centres unmarked) [monastrol, 4-(3-hydroxyphenyl)-5-ethoxycarbonyl-6-methyl-3,4-dihydropyrimidin-2(1H), reference compound]
bipolar spindle formation (Xenopus egg extract): inhibited bipolar spindle formation | morphology of the cells (HeLa cells): arrested in mitosis with a radial arrangement of microtubules and chromosomes

— patent EP1655289A1, “Quinazoline derivatives, process for their preparation, their use as antimitotics and pharmaceutical compositions comprising said derivatives” (EMBL, priority 2004, dated 2006)
